Assay results: doi:10.1101/2025.01.31.635913
Positions count from the first letter of the chain named. These are yes or no findings as the source states them, for the method shown. Binding seen in cells or lysates may run through a third protein. Some binding calls cover weakened binding; strength is not graded here. Where a sequence is shown, tags or fusion partners need not be part of it.

The chains behind the UniProt entries cited, without tags or fusion partners. Where a name states a change or a piece, a line headed by the entry shows the natural chain unless it says otherwise.
UniProt O48538, whole entry: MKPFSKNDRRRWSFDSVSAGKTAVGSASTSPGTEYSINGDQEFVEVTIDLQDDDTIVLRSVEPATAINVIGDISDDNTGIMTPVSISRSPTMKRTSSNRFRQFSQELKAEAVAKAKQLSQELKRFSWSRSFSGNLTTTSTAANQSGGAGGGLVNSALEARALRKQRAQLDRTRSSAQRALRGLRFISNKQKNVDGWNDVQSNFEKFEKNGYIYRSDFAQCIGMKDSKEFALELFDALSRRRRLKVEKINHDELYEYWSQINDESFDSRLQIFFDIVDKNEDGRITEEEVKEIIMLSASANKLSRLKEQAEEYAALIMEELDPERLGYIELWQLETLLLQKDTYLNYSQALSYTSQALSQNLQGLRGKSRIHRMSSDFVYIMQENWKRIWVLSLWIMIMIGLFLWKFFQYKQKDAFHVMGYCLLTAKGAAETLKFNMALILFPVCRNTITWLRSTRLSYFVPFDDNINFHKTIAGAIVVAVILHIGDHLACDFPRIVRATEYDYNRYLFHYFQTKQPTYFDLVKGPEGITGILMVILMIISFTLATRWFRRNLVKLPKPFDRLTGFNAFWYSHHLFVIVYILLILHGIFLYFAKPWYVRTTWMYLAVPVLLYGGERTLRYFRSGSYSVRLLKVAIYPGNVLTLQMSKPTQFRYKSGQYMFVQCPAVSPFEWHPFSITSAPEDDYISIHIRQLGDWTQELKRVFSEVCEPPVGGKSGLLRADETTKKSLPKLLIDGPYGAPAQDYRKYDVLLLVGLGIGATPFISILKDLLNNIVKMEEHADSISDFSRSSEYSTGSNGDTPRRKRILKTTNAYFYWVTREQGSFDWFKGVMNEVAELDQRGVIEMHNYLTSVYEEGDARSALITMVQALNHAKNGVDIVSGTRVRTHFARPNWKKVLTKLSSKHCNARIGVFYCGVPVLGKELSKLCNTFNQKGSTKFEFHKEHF

B1: 10xMyc-RLP42, transiently expressed in N. benthamiana (receptor, UniProt Q9LJS0 22-890)
chain: SSFFTFNNPAEGPGACGPHQIQAFTQFKNEFDTRACNHSDPWNGVWCDNSTGAVTMLQLRACLSGTLKPNSSLFQFHHLRSLLLPHNNFTSSSISSKFGMLNNLEVLSLSSSGFLAQVPFSFSNLSMLSALDLSKNELTGSLSFVRNLRKLRVLDVSYNHFSGILNPNSSLFELHHLIYLNLRYNNFTSSSLPYEFGNLNKLEVLDVSSNSFFGQVPPTISNLTQLTELYLPLNDFTGSLPLVQNLTKLSILHLFGNHFSGTIPSSLFTMPFLSSIYLNKNNLSGSIEVPNSSSSSRLEHLYLGKNHLGKILEPIAKLVNLKELDLSFLNTSHPIDLSLFSSLKSLLLLDLSGDWISKASLTLDSYIPSTLEVLRLEHCDISEFPNVFKTLHNLEYIALSNNRISGKFPEWLWSLPRLSSVFITDNLLTGFEGSSEVLVNSSVQILSLDTNSLEGALPHLPLSINYFSAIDNRFGGDIPLSICNRSSLDVLDLSYNNFSGQIPPCLSNLLYLKLRKNNLEGSIPDKYYVDTPLRSFDVGYNRLTGKLPRSLINCSALQFLSVDHNGIKDTFPFYLKALPKLQVLLLSSNEFYGPLSPPNQGPLGFPELRILEIAGNKLTGSLPPDFFVNWKASSHTMNEDLGLYMVYSKVIFGNYHLTYYETIDLRYKGLSMEQENVLTSSATIDLSGNRLEGEIPESLGLLKALIALNLSNNAFTGHIPLSLANLKKIESLDLSSNQLSGTIPNGLGTLSFLAYMNVSHNQLNGEIPQGTQITGQPKSSFEGNAGLCGFPLQESCFGTNAPPAQKPKEEEEAEEDEQELNWKAVAIGYGVGVLLGLAIAQLIASYKPEWLVCLVKSRNPLRSFFGFEY
B2: RPS2-HA expressed in Arabidopsis under its native promoter (proRPS2::RPS2-HA) (receptor, UniProt Q42484 1-909)
chain: MDFISSLIVGCAQVLCESMNMAERRGHKTDLRQAITDLETAIGDLKAIRDDLTLRIQQDGLEGRSCSNRAREWLSAVQVTETKTALLLVRFRRREQRTRMRRRYLSCFGCADYKLCKKVSAILKSIGELRERSEAIKTDGGSIQVTCREIPIKSVVGNTTMMEQVLEFLSEEEERGIIGVYGPGGVGKTTLMQSINNELITKGHQYDVLIWVQMSREFGECTIQQAVGARLGLSWDEKETGENRALKIYRALRQKRFLLLLDDVWEEIDLEKTGVPRPDRENKCKVMFTTRSIALCNNMGAEYKLRVEFLEKKHAWELFCSKVWRKDLLESSSIRRLAEIIVSKCGGLPLALITLGGAMAHRETEEEWIHASEVLTRFPAEMKGMNYVFALLKFSYDNLESDLLRSCFLYCALFPEEHSIEIEQLVEYWVGEGFLTSSHGVNTIYKGYFLIGDLKAACLLETGDEKTQVKMHNVVRSFALWMASEQGTYKELILVEPSMGHTEAPKAENWRQALVISLLDNRIQTLPEKLICPKLTTLMLQQNSSLKKIPTGFFMHMPVLRVLDLSFTSITEIPLSIKYLVELYHLSMSGTKISVLPQELGNLRKLKHLDLQRTQFLQTIPRDAICWLSKLEVLNLYYSYAGWELQSFGEDEAEELGFADLEYLENLTTLGITVLSLETLKTLFEFGALHKHIQHLHVEECNELLYFNLPSLTNHGRNLRRLSIKSCHDLEYLVTPADFENDWLPSLEVLTLHSLHNLTRVWGNSVSQDCLRNIRCINISHCNKLKNVSWVQKLPKLEVIELFDCREIEELISEHESPSVEDPTLFPSLKTLRTRDLPELNSILPSRFSFQKVETLVITNCPRVKKLPFQERRTQMNLPTVYCEEKWWKALEKDQPNEELCYLPRFVPN
B3: RPS2-HA, transiently expressed in N. benthamiana (receptor, UniProt Q42484 1-909)
chain: B2 chain

How the values were obtained:
Experiment in all cases: co-IP
[1] = target: T1, AtMC1^C220A-GFP (catalytically inactive AtMC1 fused to C-terminal GFP), transiently expressed in N. benthamiana (Arabidopsis thaliana) (UniProt Q7XJE6)
T1 sequence: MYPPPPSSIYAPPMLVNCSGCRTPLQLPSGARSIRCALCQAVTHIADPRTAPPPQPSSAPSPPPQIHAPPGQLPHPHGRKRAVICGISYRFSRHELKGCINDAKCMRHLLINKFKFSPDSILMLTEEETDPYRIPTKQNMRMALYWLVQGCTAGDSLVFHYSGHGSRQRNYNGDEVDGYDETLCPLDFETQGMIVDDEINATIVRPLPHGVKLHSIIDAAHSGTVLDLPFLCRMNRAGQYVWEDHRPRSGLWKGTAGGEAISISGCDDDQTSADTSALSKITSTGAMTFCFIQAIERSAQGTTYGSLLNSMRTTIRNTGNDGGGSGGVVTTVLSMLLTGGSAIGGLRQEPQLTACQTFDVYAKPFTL

[2] = target: T2, AtMC1^C220A-GFP (catalytically inactive AtMC1 fused to C-terminal GFP), stable Arabidopsis transgenic (Arabidopsis thaliana) (UniProt Q7XJE6)
T2 sequence: T1 sequence

[3] = target: T3, AtMC1-GFP (Wt AtMC1 fused to C-terminal GFP), stable Arabidopsis transgenic (atmc1 35S::AtMC1-GFP) (Arabidopsis thaliana) (UniProt Q7XJE6)
T3 sequence: T1 sequence with A220C

Molecule	binding [1]	binding [2]	binding [3]
FLAG-RBOHF, transiently expressed in N. benthamiana (from UniProt O48538 1-944) (enzyme)	binds	–	–
B1	binds	–	–
B2	–	binds	binds
B3	binds	–	–
